Laboratory results as given in PubChem BioAssay AID330 (DTP/NCI, 2004).
The list does not hold the whole screen: it is rich in T/C values a quarter to a half above the control, in often repeated tests (any T/C) and in doses without a T/C. Further doses and runs are listed elsewhere. T/C is the treated group as % of the vehicle group. Some entries give survivors of the animals treated and no T/C: the source holds a T/C of zero for them, seemingly a mark for toxic or unscored doses. Some survivor counts are full or nearly so, which does not show that the dose was tolerated: survival well below the control is almost never listed, so the zero probably covers shortened survival too. Counts of survivors are from the toxicity check (mostly the fifth day) where no day follows; animals may have died later. Schedule codes are those of the source, taken here to give the interval after Q, in days (D) or hours (H), and the number of doses after X. Marks such as (2×) count equal records among those shown. Some entries were tested several times; their values stand side by side, smallest first. For survival time, this PubChem deposit counts one and a half times the control or more as active, and values a quarter to a half above the control carry no call in these data; other NCI protocols may use other cut-offs. Some molecules as drawn cover several salts, stereoisomers or complexes of the source; a dose is that of the sample tested. Some T/C values are followed by the survivors on the day toxicity was checked, most often the fifth; where none is given, no animal had died by that day.

System: P388 leukemia ip, CD2F1 mice, survival T/C
Assay: NCI In Vivo Anticancer Drug Screen. Data for tumor model P388 Leukemia (intraperitoneal) in CD2F1 (CDF1) mice
Conditions: T/C endpoint: median survival time, higher T/C = longer survival
[1] = dose: 6.25 mg/kg/injection, schedule: Q01DX009 (ip), vehicle: saline with Tween-80
[2] = dose: 240.0 mg/kg/injection, schedule: Q01DX005 (ip), vehicle: Klucel (hydroxypropylcellulose) (HPC)

c1nc(SSc2ncnc3nc[nH]c23)c2[nH]cnc2n1
survivor count (dose: 75.0 mg/kg/injection, schedule: Q01DX009 (ip), vehicle: saline with Tween-80): 5 of 6 | survivor count (dose: 100.0 mg/kg/injection, schedule: Q01DX009 (ip), vehicle: saline with Tween-80): 6 of 6 | survivor count (dose: 115.0 mg/kg/injection, schedule: Q01DX009 (ip), vehicle: saline with Tween-80): 3 of 6 | survivor count (dose: 170.0 mg/kg/injection, schedule: Q01DX009 (ip), vehicle: saline with Tween-80): 2 of 6

Cc1nnc2sc3c(Cl)c4nn5c(C)nnc5sc4c(Cl)c3nn12
survivor count [1]: 6 of 6 | survivor count (dose: 12.5 mg/kg/injection, schedule: Q01DX009 (ip), vehicle: saline with Tween-80): 6 of 6 | survivor count (dose: 25.0 mg/kg/injection, schedule: Q01DX009 (ip), vehicle: saline with Tween-80): 6 of 6

O=C(O)c1cc(=O)c2c(OCC(O)COc3cccc4oc(C(=O)O)cc(=O)c34)cccc2o1.[Cu+2]
survivor count (dose: 100.0 mg/kg/injection, schedule: Q04DX002 (ip), vehicle: Klucel (hydroxypropylcellulose) (HPC)): 6 of 6 | survivor count (dose: 200.0 mg/kg/injection, schedule: Q04DX002 (ip), vehicle: Klucel (hydroxypropylcellulose) (HPC)): 6 of 6 | survivor count (dose: 400.0 mg/kg/injection, schedule: Q04DX002 (ip), vehicle: Klucel (hydroxypropylcellulose) (HPC)): 4 of 6

CSc1nc2cc(Cl)ccc2c2c1C=NCCN2
survivor count (dose: 100.0 mg/kg/injection, schedule: Q04DX003 (ip), vehicle: suspension in saline): 1 of 6 | survivor count (dose: 200.0 mg/kg/injection, schedule: Q04DX003 (ip), vehicle: suspension in saline): 3 of 6

O=C1c2ccccc2C(=O)c2c1ccc1ccccc21
survivor count (dose: 200.0 mg/kg/injection, schedule: Q01DX005 (ip), vehicle: saline with Tween-80): 1 of 5

O=NNc1cncc(Cl)n1
survivor count (dose: 100.0 mg/kg/injection, schedule: Q01DX009 (ip), vehicle: water): 6 of 6 | survivor count (dose: 200.0 mg/kg/injection, schedule: Q01DX009 (ip), vehicle: water): 1 of 6

COc1ccc2nc3ccccc3c(NCCCCCCCCNc3c4ccccc4nc4ccc(OC)cc34)c2c1
survivor count (dose: 10.0 mg/kg/injection, schedule: Q01DX009 (ip), vehicle: other): 1 of 4 | survivor count (dose: 15.0 mg/kg/injection, schedule: Q01DX009 (ip), vehicle: other): 0 of 4 | survivor count (dose: 20.0 mg/kg/injection, schedule: Q01DX009 (ip), vehicle: other): 0 of 4

FC(F)(F)c1ccc2cc(C3(C4CCNCC4)CCCO3)c3ccc(C(F)(F)F)cc3c2c1 (stereo unspecified)
survivor count (dose: 50.0 mg/kg/injection, schedule: Q01DX009 (ip), vehicle: distilled water + Tween-80): 2 of 6 | survivor count (dose: 100.0 mg/kg/injection, schedule: Q01DX009 (ip), vehicle: distilled water + Tween-80): 0 of 6 | survivor count (dose: 200.0 mg/kg/injection, schedule: Q01DX009 (ip), vehicle: distilled water + Tween-80): 0 of 6

OC1c2ccccc2-c2ccccc2C1O (stereo unspecified)
survivor count (dose: 400.0 mg/kg/injection, schedule: Q04DX002 (ip), vehicle: saline with Tween-80): 2 of 6 | survivor count (dose: 800.0 mg/kg/injection, schedule: Q04DX002 (ip), vehicle: saline with Tween-80): 1 of 6 and 2 of 5

COc1ccc(S(=O)(=O)N=N/C=C2\C=CC=CN2O)cc1OC
T/C (dose: 50.0 mg/kg/injection, schedule: Q01DX009 (ip), vehicle: saline with Tween-80, evaluated on day 20): 125 % of control | T/C (dose: 50.0 mg/kg/injection, schedule: Q01DX009 (ip), vehicle: saline with Tween-80, evaluated on day 30): 130 % of control | T/C (dose: 100.0 mg/kg/injection, schedule: Q01DX009 (ip), vehicle: saline with Tween-80, evaluated on day 20): 138 % of control | T/C (dose: 100.0 mg/kg/injection, schedule: Q01DX009 (ip), vehicle: saline with Tween-80, evaluated on day 30): 140 % of control | survivor count (dose: 200.0 mg/kg/injection, schedule: Q01DX009 (ip), vehicle: saline with Tween-80): 0 of 6 (2×)

COc1cc(OC(C)C)cc2c1C(=O)C(C(O)(O)C(F)(F)F)=CC2=O
survivor count (dose: 60.0 mg/kg/injection, schedule: Q01DX005 (ip), vehicle: Klucel (hydroxypropylcellulose) (HPC)): 3 of 6 | survivor count (dose: 120.0 mg/kg/injection, schedule: Q01DX005 (ip), vehicle: Klucel (hydroxypropylcellulose) (HPC)): 5 of 6 | survivor count [2]: 0 of 6

Oc1ccccc1-c1cc(-c2ccccc2)nc(NCCCCNc2nc(-c3ccccc3)cc(-c3ccccc3O)n2)n1
survivor count (dose: 50.0 mg/kg/injection, schedule: Q01DX005 (ip), vehicle: Klucel (hydroxypropylcellulose) (HPC)): 6 of 6 | survivor count (dose: 200.0 mg/kg/injection, schedule: Q01DX005 (ip), vehicle: Klucel (hydroxypropylcellulose) (HPC)): 0 of 6

CN(C)C(=O)c1nc(CNC(=O)CN)n(-c2ccc(Cl)cc2C(=O)c2ccccc2)n1
survivor count [2]: 3 of 6

CC(=O)OCC1OC(OC(C)=O)C(N(CCCl)CCCl)C(OC(C)=O)C1OC(C)=O (stereo unspecified)
survivor count (dose: 5.0 mg/kg/injection, schedule: Q01DX005 (ip), vehicle: distilled water + Tween-80): 5 of 5 | survivor count (dose: 10.0 mg/kg/injection, schedule: Q01DX005 (ip), vehicle: distilled water + Tween-80): 4 of 5 | survivor count (dose: 20.0 mg/kg/injection, schedule: Q01DX005 (ip), vehicle: distilled water + Tween-80): 1 of 5 | survivor count (dose: 40.0 mg/kg/injection, schedule: Q01DX005 (ip), vehicle: distilled water + Tween-80): 0 of 5

CC(C)CCCCCCCCCCCCC(=O)NCC(=O)NC1C(C)OC(Nc2ncnc3nc[nH]c23)C(O)C1O (stereo unspecified)
T/C (dose: 0.25 mg/kg/injection, schedule: Q01DX009 (ip), vehicle: other): 141 % of control | T/C (dose: 0.5 mg/kg/injection, schedule: Q01DX009 (ip), vehicle: other): 149 % of control | survivor count (dose: 4.0 mg/kg/injection, schedule: Q01DX009 (ip), vehicle: other): 5 of 6

CC1(C)N=C(N)N=C(N)N1c1ccc(CCCCc2ccc(Cl)cc2Cl)cc1
T/C (dose: 4.0 mg/kg/injection, schedule: Q01DX009 (ip), vehicle: saline sonified): 136 % of control | T/C (dose: 6.0 mg/kg/injection, schedule: Q01DX009 (ip), vehicle: saline sonified): 140 % of control | T/C [1]: 127 % of control | T/C (dose: 9.0 mg/kg/injection, schedule: Q01DX009 (ip), vehicle: saline sonified): 140 % of control [5 of 6 alive]

COc1cccc2c1C(=O)c1c(O)c3c(c(O)c1C2=O)CC(O)(C(C)=O)CC3OC1CC(N)C(O)C(C)O1 (stereo unspecified) (tested in a mixture with another compound)
T/C (dose: 9.38 mg/kg/injection, schedule: Q04DX003 (ip), vehicle: water): 126 % of control | T/C (dose: 18.75 mg/kg/injection, schedule: Q04DX003 (ip), vehicle: water): 130 and 133 % of control | T/C (dose: 37.5 mg/kg/injection, schedule: Q04DX003 (ip), vehicle: water): 126, 126 [5 of 6 alive on day 9], 129, 145 % of control | T/C (dose: 75.0 mg/kg/injection, schedule: Q04DX003 (ip), vehicle: water): 131 % of control

CC(N=c1cc2n(-c3ccc(Cl)cc3)c3ccccc3nc-2cc1Nc1ccc(Cl)cc1)c1ccccc1 (stereo unspecified)
survivor count (dose: 15.0 mg/kg/injection, schedule: Q01DX005 (ip), vehicle: saline with Tween-80): 6 of 6 | survivor count (dose: 30.0 mg/kg/injection, schedule: Q01DX005 (ip), vehicle: saline with Tween-80): 6 of 6 | survivor count (dose: 60.0 mg/kg/injection, schedule: Q01DX005 (ip), vehicle: saline with Tween-80): 6 of 6 | survivor count (dose: 120.0 mg/kg/injection, schedule: Q01DX005 (ip), vehicle: saline with Tween-80): 6 of 6 | survivor count (dose: 240.0 mg/kg/injection, schedule: Q01DX005 (ip), vehicle: saline with Tween-80): 6 of 6

CCN(CC)CCCNc1cc(OC)cc2nc3cc(Cl)ccc3nc12
survivor count (dose: 200.0 mg/kg/injection, schedule: Q01DX005 (ip), vehicle: saline): 3 of 5

COc1cc(CC2c3cc(OC)c(OC)cc3CCN2C)c(NC(=O)c2ccc(C(=O)Nc3cc(OC)c(OC)cc3CC3c4cc(OC)c(OC)cc4CCN3C)cc2)cc1OC (stereo unspecified)
survivor count (dose: 100.0 mg/kg/injection, schedule: Q01DX009 (ip), vehicle: other): 6 of 6
